# Some of the results follow. This data set is noisy: repeats of one test often differ as much as different tests do.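 HEK293T cells were given each compound shortly before transfection with a reporter in which red mCherry is followed by the SARS-CoV-2 frameshift element and then GFP in the −1 frame, so GFP appears only after frameshifting.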
# Tested on: HEK293T
# Assay: percent viability (nuclei count) relative to control; higher = more viable cells
# Conditions: 10 µM; 24 h
row,Structure (SMILES),percent viability [%]
1,CC(=O)O[C@H]1C(=O)[C@@]2(C)[C@H]([C@H](OC(=O)c3ccccc3)[C@]3(O)C[C@H](OC(=O)[C@H](O)[C@@H](NC(=O)c4ccccc4)c4ccccc4)C(C)=C1C3(C)C)[C@]1(OC(C)=O)CO[C@@H]1C[C@@H]2O [Taxol],19.3
2,CN1CCCN=C1/C=C/c1cccc(O)c1,174
3,NCCCC(O)(P(=O)(O)O)P(=O)(O)O [Alendronate],203
4,CCCCC(=O)O[C@]1(C(=O)CO)[C@@H](C)C[C@H]2[C@@H]3CCC4=CC(=O)C=C[C@]4(C)[C@@]3(F)[C@@H](O)C[C@@]21C,212
5,C[C@@H]1O[C@@H](OC[C@H]2O[C@@H](Oc3c(-c4ccc(OCCO)c(OCCO)c4)oc4cc(OCCO)cc(O)c4c3=O)[C@H](O)[C@@H](O)[C@@H]2O)[C@H](O)[C@H](O)[C@H]1O,33
6,OC(CCN1CCCCC1)(c1ccccc1)C1CCCCC1 (stereo not drawn) [trihexyphenidyl],115
7,CC1(C)S[C@@H]2[C@H](NC(=O)[C@H](N)c3ccccc3)C(=O)N2[C@H]1C(=O)O [Ampicillin],85.2
8,CN[C@H]1C(=O)N[C@@H]2Cc3ccc(cc3)Oc3cc4cc(c3O[C@@H]3O[C@H](C(=O)O)[C@@H](O)[C@H](O)[C@H]3NC(=O)CCCCCCCCC(C)C)Oc3ccc(cc3Cl)[C@@H](O)[C@@H]3NC(=O)[C@H](NC(=O)[C@@H]4NC(=O)[C@@H](NC2=O)c2cc(cc(O)c2Cl)Oc2cc1ccc2O)c1ccc(O)c(c1)-c1c(O[C@H]2O[C@H](CO)[C@@H](O)[C@H](O)[C@@H]2O)cc(O)cc1[C@@H](C(=O)NCCCN(C)C)NC3=O [Dalbavancin],176
9,C=CC[N+]1([C@H]2C[C@H]3[C@@H]4CC[C@H]5C[C@H](O)[C@@H](N6CCOCC6)C[C@]5(C)[C@H]4CC[C@]3(C)[C@H]2OC(C)=O)CCCC1 [rocuronium bromide],107
10,CCCCCC[C@@H](CCC)C(=O)O [arundic acid],71
11,CCCc1c(OCCCOc2cc(O)c(-c3ccc(F)cc3)cc2CC)cccc1Oc1ccccc1C(=O)O [etalocib],131
12,C[C@@H](c1nc(-c2ccc(C#N)cc2)cs1)[C@](O)(Cn1cncn1)c1cc(F)ccc1F [isavuconazole],63.5
13,O=C(O)CCCCC(=O)O,280
14,CN1CCC(OC(=O)C(Oc2ccc(Cl)cc2)Oc2ccc(Cl)cc2)CC1 [lifibrate],182
15,CC(C)[C@H]1CC[C@H](C(=O)N[C@H](Cc2ccccc2)C(=O)O)CC1 [nateglinide],168
16,Cc1[nH]cnc1-c1ccc(Cl)cc1 [lofemizole],93.6
17,O=C(O)Cn1c(C(=O)Nc2nc(-c3ccccc3Cl)cs2)cc2ccccc21 [lintitript],104

row,Structure (SMILES),percent viability [%]
1,CCOP(=O)(Cc1ccc(C(=O)Nc2ccc(Br)cc2C#N)cc1)OCC [ibrolipim],130
2,O=S(=O)(c1cccc2cnccc12)N1CCCNCC1 [fasudil],199
3,CC(=O)O[C@]1(C(C)=O)CC[C@H]2[C@@H]3C=C(C)C4=CC(=O)CC[C@]4(C)[C@H]3CC[C@@]21C [Megestrol Acetate],147
4,CN1CCC(OC(c2ccccc2)c2ccccc2)CC1 [diphenylpyraline],147
5,CC1(C)C[C@@H]1C(=O)N/C(=C\CCCCSC[C@H](N)C(=O)O)C(=O)O [Cilastatin],200
6,CCCOc1cc(N)ccc1C(=O)OCCN(CC)CC [propoxycaine],157
7,Cc1cc(C(C)(C)C)c(O)c(C(C)(C)C)c1,52.8
8,CC(C)N(CCC(CCN1CCCCC1)(C(N)=O)c1ccccc1Cl)C(C)C (stereo not drawn) [disobutamide],85.8
9,COc1ccc(CCNC[C@H](O)c2ccc(O)cc2)cc1OC [denopamine],200
10,CN1CCN(C(c2ccccc2)c2ccc(Cl)cc2)CC1 (stereo not drawn),202
11,CCCCC[C@H](O)/C=C/[C@H]1[C@H](O)CC(=O)[C@@H]1CCCCCCC(=O)O [alprostadil],207
12,Nc1nc(=O)n([C@@H]2CS[C@H](CO)O2)cc1F [emtricitabine],153
13,CC(C)[C@H](N)C(=O)O [valine],260
14,CC(C)(C)NCC(O)c1cc(O)cc(O)c1 (stereo not drawn) [terbutaline],159
15,CCN(CC)CCNC(=O)c1cc(S(C)(=O)=O)ccc1OC [tiapride],196
16,CC1(C)C2CCC1(CS(=O)(=O)O)C(=O)C2=Cc1ccc(C=C2C(=O)C3(CS(=O)(=O)O)CCC2C3(C)C)cc1,146

# A stretch from further up:
row,Structure (SMILES),percent viability [%]
8,CC(C)N(CCC(CCN1CCCCC1)(C(N)=O)c1ccccc1Cl)C(C)C (stereo not drawn) [disobutamide],85.8
9,COc1ccc(CCNC[C@H](O)c2ccc(O)cc2)cc1OC [denopamine],200
